Test results as given in patent US5157020A, “Synthetic senescent cell antigen” (Research Corporation Tech., Inc., priority 1990, dated 1992).
Part of at least one peptide drawing is inferred or uncertain, most often the ends. Some compounds share one wording; it may come from a single statement. Where a SMILES comes first, the peptide text is derived from it.

Tests used:
senescent cell IgG [1] = test: IgG binding and inhibition assay (competitive inhibition of senescent cell IgG binding to stored erythrocytes, 125I-Protein A); set-up: species or system human; conditions: for INHIBITION (%) of senescent cell IgG binding to erythrocytes: Table 2, all peptides tested at 30 ug, ± standard deviation; for inhibition of senescent cell IgG binding (in words): competitive inhibition assay; for percent inhibition of senescent cell IgG binding: FIG. 2 legend
Description: IgG binding and inhibition assay. IgG was isolated from senescent RBC from 50 liters of blood and purified with Protein A Sepharose as previously described (2, 4). IgG eluted from senescent cells (SCIgG), rather than serum IgG, was used because normal serum contains antibodies to spectrin, actin, 2.1, etc. (28). Competitive inhibition studies were performed using synthetic peptides to absorb the IgG isolated from senescent erythrocytes. Intact dimeric, senescent cell IgG containing the Fc portion binds to senescent cells in situ and initiates their removal (1-7, 30). Fab fragments were not used because we were simulating the physiological situation. IgG isolated from aged erythrocytes binds specifically to senescent cells. […] Moreover, the specific binding capacity of the autoantibody was eliminated by absorption with purified senescent cell antigen (SCA; 7). […] Storage mimics normal aging in situ immunologically and biochemically (1-7, 30). The number of red cell-bound IgG molecules was quantitated before and after absorption using equilibrium binding kinetics (7, 30, 31). Details of the methods are given elsewhere (27). Percent inhibition was calculated from the following formula: 100[1-(x-b/T-b)] where x=molecules of IgG autoantibody bound per cell; T=total number of IgG antibody molecules bound in the absence of inhibitor; b=background Protein A binding.
Competitive inhibition studies were performed using synthetic peptides to absorb the IgG isolated from senescent erythrocytes. IgG binding and inhibition were determined with a protein A binding assay. This biological assay measures the fate of erythrocytes in vitro and in vivo (1, 2, 4).
IgG binding and inhibition assay. Competitive inhibition studies were performed using synthetic peptides to absorb the IgG isolated from senescent erythrocytes. This is the same IgG that initiates phagocytosis in situ. The Fc portion IgG is required for binding and phagocytosis of cells by macrophages (3, 2, 4, 7, 29). Fab fragments were not used because we were simulating the physiological situation. Intact dimeric, senescent cell IgG containing the Fc portion binds to senescent cells in situ and initiates their removal (3, 32, 2, 4, 6, 17, 7). Only IgG isolated from aged erythrocytes binds specifically to senescent cells. […] Moreover, the specific binding capacity of the autoantibody was eliminated by absorption with purified senescent cell antigen (39). […] Storage mimics normal aging in situ immunologically and biochemically (32, 2, 4, 6, 29, 7). After incubation with absorbed IgG, cells were washed four times with 40-50 volumes of phosphate buffered saline containing 0.2% bovine serum albumin (BSA, fraction V, Sigma, St. Louis, Mo.) and 0.5% glucose. Washed cells were transferred to BSA-coated tubes (5×10^7 cells/50 ul) and incubated for 30 min. at 37° C. with ^125 I-Protein A (Amersham, Arlington Heights, Ill. 30-38 mCi/mg, 10-15 ng/tube). Cells were then washed four times and transferred to new tubes before counting in a gamma scintillation counter (Beckman, Gamma 5,500). The number of red cell-bound IgG molecules was quantitated before and after absorption using equilibrium binding kinetics (7).
Scatchard analysis was performed. Scathard, NY Acad. Sci. 51:660-672 (1949), incorporated herein by reference. Percent inhibition was calculated from the following formula: 100[1-(x-b/T-b)] where x=molecules of IgG autoantibody bound per cell; T=total number of IgG antibody molecules bound in the absence of inhibitor; b=background Protein A binding.

senescent cell IgG [2] = test: Immunoblotting of synthetic peptides with IgG autoantibody from senescent erythrocytes; assay type: binding, human; conditions: autoradiograph of immunoblot, FIG. 4
Description: Sodium dodecyl sulfate (NaDodSO4) polyacrylamide gel electrophoresis and immunostaining of peptides. Peptides were analyzed on 6-25% or 12-25% linear gels (6, 7, 27-29). Immunoautoradiography was performed by immunoblotting as described previously (6, 7, 28-30). Immunoblots were exposed to Kodak Ortho G (OG-1) film at -70° C. using our standard procedures (30, 45).
We used immunoblotting of the peptides followed by reaction with IgG eluted from senescent red cells (SCIgG) to localize the aging antigen site (FIG. 4A and B). We also used the IgG binding and inhibition assay at a singe concentration of peptide and performed Scatchard analysis (Table 2). […] Peptides that were negative by immunoblotting were also negative in the inhibition assay (FIG. 4 and Table 2).

SMILES | INHIBITION (%) of senescent cell IgG binding to erythrocytes (senescent cell IgG [1]) [%] | binding of senescent cell IgG to peptide in immunoblots (senescent cell IgG [2]) | other results
CSCC[C@H](NC(=O)[C@H](CCC(N)=O)NC(=O)[C@H](CC(N)=O)NC(=O)[C@H](CCCNC(=N)N)NC(=O)[C@@H](NC(=O)[C@H](CCCCN)NC(=O)[C@H](CCC(=O)O)NC(=O)CNC(=O)[C@H](CC(C)C)NC(=O)[C@@H](N)CC(C)C)[C@@H](C)O)C(=O)NCC(=O)N[C@H](C(=O)N[C@@H](CO)C(=O)N[C@@H](CCC(=O)O)C(=O)N[C@@H](CC(C)C)C(=O)O)C(C)C [426-440, LLGEKTRNQMGVSEL] (H-LLGEKTRNQMGVSEL-OH) | 11 ± 1 |  | inhibition of senescent cell IgG binding (in words) (senescent cell IgG [1]): negative
CC[C@H](C)[C@H](NC(=O)[C@H](CC(C)C)NC(=O)[C@H](CO)NC(=O)[C@@H](NC(=O)[C@H](CC(C)C)NC(=O)[C@H](Cc1ccccc1)NC(=O)[C@H](CO)NC(=O)[C@H](Cc1ccccc1)NC(=O)[C@@H](NC(=O)[C@H](CCC(=O)O)NC(=O)[C@H](CCC(N)=O)NC(=O)[C@@H](NC(=O)[C@H](Cc1ccc(O)cc1)NC(=O)[C@H](CCCNC(=N)N)NC(=O)[C@H](CO)NC(=O)[C@@H](NC(=O)[C@@H](N)Cc1ccccc1)[C@@H](C)CC)[C@@H](C)O)[C@@H](C)CC)[C@@H](C)CC)C(=O)O [515-531, FISRYTQEIFSFLISLI] (H-FISRYTQEIFSFLISLI-OH) | 15 ± 1 |  | 
CC[C@H](C)[C@H](NC(=O)[C@H](CC(C)C)NC(=O)[C@H](CCCCN)NC(=O)[C@H](CO)NC(=O)[C@H](Cc1ccccc1)NC(=O)[C@@H](NC(=O)[C@H](CCC(=O)O)NC(=O)[C@H](Cc1ccc(O)cc1)NC(=O)[C@@H](NC(=O)[C@H](Cc1ccccc1)NC(=O)[C@@H](NC(=O)[C@H](CC(C)C)NC(=O)[C@H](CO)NC(=O)[C@@H](NC(=O)[C@H](CC(C)C)NC(=O)[C@@H](N)Cc1ccccc1)[C@@H](C)CC)[C@@H](C)CC)[C@@H](C)CC)[C@@H](C)O)C(=O)O [526-541, FLISLIFIYETFSKLI] (H-FLISLIFIYETFSKLI-OH) |  | trace binding | 
CSCC[C@H](NC(=O)[C@H](CC(C)C)NC(=O)[C@@H](NC(=O)[C@H](CC(N)=O)NC(=O)[C@H](Cc1ccc(O)cc1)NC(=O)[C@H](CC(N)=O)NC(=O)[C@H](Cc1ccc(O)cc1)NC(=O)[C@@H](NC(=O)[C@H](CCCCN)NC(=O)[C@H](CCC(N)=O)NC(=O)[C@@H](N)CC(C)C)[C@@H](C)O)C(C)C)C(=O)N[C@H](C(=O)N1CCC[C@H]1C(=O)N[C@@H](CCCCN)C(=O)N1CCC[C@H]1C(=O)N[C@@H](CCC(N)=O)C(=O)NCC(=O)N1CCC[C@H]1C(=O)O)C(C)C [549-566, LQKTYNYNVLMVPKPQGP] (H-LQKTYNYNVLMVPKPQGP-OH) |  | trace binding | 
CC[C@H](C)[C@H](NC(=O)[C@H](CO)NC(=O)[C@@H](NC(=O)[C@@H]1CCCN1C(=O)[C@@H](NC(=O)CNC(=O)[C@H](Cc1ccccc1)NC(=O)[C@H](CC(=O)O)NC(=O)CNC(=O)[C@@H](NC(=O)[C@@H](NC(=O)[C@H](CCCNC(=N)N)NC(=O)[C@H](CCCNC(=N)N)NC(=O)[C@H](CC(C)C)NC(=O)[C@H](CCCCN)NC(=O)CNC(=O)[C@@H]1CCCN1C(=O)[C@@H](N)Cc1ccccc1)C(C)C)[C@@H](C)CC)C(C)C)[C@@H](C)CC)C(=O)O [597-614, FPGKLRRVIGDFGVPISI] (H-FPGKLRRVIGDFGVPISI-OH) | 52 ± 4 | faintly | inhibition of senescent cell IgG binding (senescent cell IgG [1]; at 30 ug): 52±4%
CC[C@H](C)[C@H](NC(=O)[C@H](Cc1ccccc1)NC(=O)[C@H](Cc1ccccc1)NC(=O)[C@H](CC(=O)O)NC(=O)[C@@H](NC(=O)[C@H](CC(C)C)NC(=O)[C@@H](NC(=O)[C@H](CCSC)NC(=O)[C@@H](NC(=O)[C@H](CC(C)C)NC(=O)[C@@H](NC(=O)[C@H](CO)NC(=O)[C@@H](NC(=O)[C@@H]1CCCN1C(=O)[C@@H](NC(=O)CN)C(C)C)[C@@H](C)CC)[C@@H](C)CC)[C@@H](C)CC)C(C)C)C(C)C)C(=O)N[C@@H](CCC(N)=O)C(=O)N[C@@H](CC(=O)O)C(=O)O [609-626, GVPISILIMVLVDFFIQD] (H-GVPISILIMVLVDFFIQD-OH) | 12 ± 1 |  | 
CC[C@H](C)[C@H](NC(=O)[C@@H](NC(=O)[C@H](Cc1c[nH]c2ccccc12)NC(=O)CNC(=O)[C@H](CCCNC(=N)N)NC(=O)[C@H](C)N)C(C)C)C(=O)N[C@@H](Cc1c[nH]cn1)C(=O)N1CCC[C@H]1C(=O)N[C@@H](CC(C)C)C(=O)NCC(=O)N[C@@H](CC(C)C)C(=O)N[C@@H](CCCNC(=N)N)C(=O)N[C@@H](CO)C(=O)N[C@@H](CCC(=O)O)C(=O)N[C@@H](Cc1ccccc1)C(=O)O [645-659, ARGWVIHPLGLRSEF] (H-ARGWVIHPLGLRSEF-OH) |  | trace binding | 
CC[C@H](C)[C@H](NC(=O)CNC(=O)[C@H](CO)NC(=O)[C@H](CC(C)C)NC(=O)[C@H](CO)NC(=O)[C@@H](NC(=O)[C@@H](NC(=O)CNC(=O)[C@H](CCSC)NC(=O)[C@H](Cc1ccc(O)cc1)NC(=O)[C@H](CC(C)C)NC(=O)[C@H](Cc1ccccc1)NC(=O)[C@@H](NC(=O)CNC(=O)[C@@H](N)Cc1ccccc1)[C@@H](C)CC)C(C)C)[C@@H](C)O)C(=O)N[C@@H](CCC(N)=O)C(=O)N[C@@H](CC(C)C)C(=O)O [789-805, FGIFLYMGVTSLSGIQL] (H-FGIFLYMGVTSLSGIQL-OH) |  | binding | 
CC[C@H](C)[C@H](NC(=O)CNC(=O)[C@H](CO)NC(=O)[C@@H](N)CC(C)C)C(=O)N[C@@H](CCC(N)=O)C(=O)N[C@@H](CC(C)C)C(=O)N[C@@H](Cc1ccccc1)C(=O)N[C@@H](CC(=O)O)C(=O)N[C@@H](CCCNC(=N)N)C(=O)N[C@H](C(=O)N[C@@H](CC(C)C)C(=O)N[C@@H](CC(C)C)C(=O)N[C@@H](CC(C)C)C(=O)N[C@@H](Cc1ccccc1)C(=O)N[C@@H](CCCCN)C(=O)N1CCC[C@H]1C(=O)N1CCC[C@H]1C(=O)N[C@@H](CCCCN)C(=O)N[C@@H](Cc1ccc(O)cc1)C(=O)O)[C@@H](C)CC [800-818, LSGIQLFDRILLLFKPPKY] (H-LSGIQLFDRILLLFKPPKY-OH) |  | binding | 
CC(C)[C@H](NC(=O)[C@H](CC(=O)O)NC(=O)[C@@H]1CCCN1C(=O)[C@H](Cc1c[nH]cn1)NC(=O)[C@@H](N)Cc1ccc(O)cc1)C(=O)N1CCC[C@H]1C(=O)O [818-823, YHPDVP] (H-YHPDVP-OH) |  |  | percent inhibition of senescent cell IgG binding (senescent cell IgG [1]; 17 M, 6.9 ug): 27±4
CC(C)[C@H](N)C(=O)N1CCC[C@H]1C(=O)N[C@@H](Cc1ccc(O)cc1)C(=O)N[C@H](C(=O)N[C@@H](CCCCN)C(=O)N[C@@H](CCCNC(=N)N)C(=O)O)C(C)C [822-827, VPYVKR] (H-VPYVKR-OH) |  |  | percent inhibition of senescent cell IgG binding (senescent cell IgG [1]; 70.6 M, 30 ug): 30±2
CC[C@H](C)[C@H](NC(=O)CNC(=O)[C@@H](NC(=O)[C@H](Cc1ccccc1)NC(=O)[C@H](CC(C)C)NC(=O)[C@H](Cc1c[nH]cn1)NC(=O)[C@H](CCSC)NC(=O)[C@H](CCCNC(=N)N)NC(=O)[C@H](Cc1c[nH]c2ccccc12)NC(=O)[C@@H](NC(=O)[C@H](CCCCN)NC(=O)[C@@H](NC(=O)[C@H](CCCNC(=N)N)NC(=O)[C@H](CCCCN)NC(=O)[C@@H](NC(=O)[C@H](Cc1ccc(O)cc1)NC(=O)[C@@H]1CCCN1C(=O)[C@@H](N)C(C)C)C(C)C)C(C)C)[C@@H](C)O)[C@@H](C)O)C(=O)O [822-839, VPYVKRVKTWRMHLFTGI] (H-VPYVKRVKTWRMHLFTGI-OH) | 35 ± 2 | no labeling | inhibition of senescent cell IgG binding (in words) (senescent cell IgG [1]): significant inhibition
